Laboratory results from paper PMC2702331.
Results are given in words; binding and its absence hold for the method and conditions named. Binding seen in cells or lysates may run through a third protein. Here binding means that the protein was enriched with, or labelled near, the bait; the list need not be complete.

Sequences of proteins named here, by UniProt entry; tags and fusion partners are left off.
UniProt P04608: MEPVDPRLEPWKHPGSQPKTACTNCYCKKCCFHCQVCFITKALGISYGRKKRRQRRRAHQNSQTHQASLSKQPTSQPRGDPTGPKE

Biological target: GST-Tat (HIV-1 HXB2, 86 amino acids) (HIV-1 HXB2) (UniProt P04608)
Test: affinity purification with mass spectrometry; only the target purified

Binder | binding
ERCC2 (protein, UniProt P18074 1-760) MKLNVDGLLVYFPYDYIYPEQFSYMRELKRTLDAKGHGVLEMPSGTGKTVSLLALIMAYQRAYPLEVTKLIYCSRTVPEIEKVIEELRKLLNFYEKQEGEKLPFLGLALSSRKNLCIHPEVTPLRFGKDVDGKCHSLTASYVRAQYQHDTSLPHCRFYEEFDAHGREVPLPAGIYNLDDLKALGRRQGWCPYFLARYSILHANVVVYSYHYLLDPKIADLVSKELARKAVVVFDEAHNIDNVCIDSMSVNLTRRTLDRCQGNLETLQKTVLRIKETDEQRLRDEYRRLVEGLREASAARETDAHLANPVLPDEVLQEAVPGSIRTAEHFLGFLRRLLEYVKWRLRVQHVVQESPPAFLSGLAQRVCIQRKPLRFCAERLRSLLHTLEITDLADFSPLTLLANFATLVSTYAKGFTIIIEPFDDRTPTIANPILHFSCMDASLAIKPVFERFQSVIITSGTLSPLDIYPKILDFHPVTMATFTMTLARVCLCPMIIGRGNDQVAISSKFETREDIAVIRNYGNLLLEMSAVVPDGIVAFFTSYQYMESTVASWYEQGILENIQRNKLLFIETQDGAETSVALEKYQEACENGRGAILLSVARGKVSEGIDFVHHYGRAVIMFGVPYVYTQSRILKARLEYLRDQFQIRENDFLTFDAMRHAAQCVGRAIRGKTDYGLMVFADKRFARGDKRGKLPRWIQEHLTDANLNLTVDEGVQVAKYFLRQMAQPFHREDQLGLSLLSLEQLESEETLKRIEQIAQQL | binds
RFC1 (protein, UniProt P35251 1-1148) MDIRKFFGVIPSGKKLVSETVKKNEKTKSDEETLKAKKGIKEIKVNSSRKEDDFKQKQPSKKKRIIYDSDSESEETLQVKNAKKPPEKLPVSSKPGKISRQDPVTYISETDEEDDFMCKKAASKSKENGRSTNSHLGTSNMKKNEENTKTKNKPLSPIKLTPTSVLDYFGTGSVQRSNKKMVASKRKELSQNTDESGLNDEAIAKQLQLDEDAELERQLHEDEEFARTLAMLDEEPKTKKARKDTEAGETFSSVQANLSKAEKHKYPHKVKTAQVSDERKSYSPRKQSKYESSKESQQHSKSSADKIGEVSSPKASSKLAIMKRKEESSYKEIEPVASKRKENAIKLKGETKTPKKTKSSPAKKESVSPEDSEKKRTNYQAYRSYLNREGPKALGSKEIPKGAENCLEGLIFVITGVLESIERDEAKSLIERYGGKVTGNVSKKTNYLVMGRDSGQSKSDKAAALGTKIIDEDGLLNLIRTMPGKKSKYEIAVETEMKKESKLERTPQKNVQGKRKISPSKKESESKKSRPTSKRDSLAKTIKKETDVFWKSLDFKEQVAEETSGDSKARNLADDSSENKVENLLWVDKYKPTSLKTIIGQQGDQSCANKLLRWLRNWQKSSSEDKKHAAKFGKFSGKDDGSSFKAALLSGPPGVGKTTTASLVCQELGYSYVELNASDTRSKSSLKAIVAESLNNTSIKGFYSNGAASSVSTKHALIMDEVDGMAGNEDRGGIQELIGLIKHTKIPIICMCNDRNHPKIRSLVHYCFDLRFQRPRVEQIKGAMMSIAFKEGLKIPPPAMNEIILGANQDIRQVLHNLSMWCARSKALTYDQAKADSHRAKKDIKMGPFDVARKVFAAGEETAHMSLVDKSDLFFHDYSIAPLFVQENYIHVKPVAAGGDMKKHLMLLSRAADSICDGDLVDSQIRSKQNWSLLPAQAIYASVLPGELMRGYMTQFPTFPSWLGKHSSTGKHDRIVQDLALHMSLRTYSSKRTVNMDYLSLLRDALVQPLTSQGVDGVQDVVALMDTYYLMKEDFENIMEISSWGGKPSPFSKLDPKVKAAFTRAYNKEAHLTPYSLQAIKASRHSTSPSLDSEYNEELNEDDSQSDEKDQDAIETDAMIKKKTKSSKPSKPEKDKEPRKGKGKSSKK | binds
WSTF (protein, UniProt Q9UIG0 1-1483) MAPLLGRKPFPLVKPLPGEEPLFTIPHTQEAFRTREEYEARLERYSERIWTCKSTGSSQLTHKEAWEEEQEVAELLKEEFPAWYEKLVLEMVHHNTASLEKLVDTAWLEIMTKYAVGEECDFEVGKEKMLKVKIVKIHPLEKVDEEATEKKSDGACDSPSSDKENSSQIAQDHQKKETVVKEDEGRRESINDRARRSPRKLPTSLKKGERKWAPPKFLPHKYDVKLQNEDKIISNVPADSLIRTERPPNKEIVRYFIRHNALRAGTGENAPWVVEDELVKKYSLPSKFSDFLLDPYKYMTLNPSTKRKNTGSPDRKPSKKSKTDNSSLSSPLNPKLWCHVHLKKSLSGSPLKVKNSKNSKSPEEHLEEMMKMMSPNKLHTNFHIPKKGPPAKKPGKHSDKPLKAKGRSKGILNGQKSTGNSKSPKKGLKTPKTKMKQMTLLDMAKGTQKMTRAPRNSGGTPRTSSKPHKHLPPAALHLIAYYKENKDREDKRSALSCVISKTARLLSSEDRARLPEELRSLVQKRYELLEHKKRWASMSEEQRKEYLKKKREELKKKLKEKAKERREKEMLERLEKQKRYEDQELTGKNLPAFRLVDTPEGLPNTLFGDVAMVVEFLSCYSGLLLPDAQYPITAVSLMEALSADKGGFLYLNRVLVILLQTLLQDEIAEDYGELGMKLSEIPLTLHSVSELVRLCLRRSDVQEESEGSDTDDNKDSAAFEDNEVQDEFLEKLETSEFFELTSEEKLQILTALCHRILMTYSVQDHMETRQQMSAELWKERLAVLKEENDKKRAEKQKRKEMEAKNKENGKVENGLGKTDRKKEIVKFEPQVDTEAEDMISAVKSRRLLAIQAKKEREIQEREMKVKLERQAEEERIRKHKAAAEKAFQEGIAKAKLVMRRTPIGTDRNHNRYWLFSDEVPGLFIEKGWVHDSIDYRFNHHCKDHTVSGDEDYCPRSKKANLGKNASMNTQHGTATEVAVETTTPKQGQNLWFLCDSQKELDELLNCLHPQGIRESQLKERLEKRYQDIIHSIHLARKPNLGLKSCDGNQELLNFLRSDLIEVATRLQKGGLGYVEETSEFEARVISLEKLKDFGECVIALQASVIKKFLQGFMAPKQKRRKLQSEDSAKTEEVDEEKKMVEEAKVASALEKWKTAIREAQTFSRMHVLLGMLDACIKWDMSAENARCKVCRKKGEDDKLILCDECNKAFHLFCLRPALYEVPDGEWQCPACQPATARRNSRGRNYTEESASEDSEDDESDEEEEEEEEEEEEEDYEVAGLRLRPRKTIRGKHSVIPPAARSGRRPGKKPHSTRRSQPKAPPVDDAEVDELVLQTKRSSRRQSLELQKCEEILHKIVKYRFSWPFREPVTRDEAEDYYDVITHPMDFQTVQNKCSCGSYRSVQEFLTDMKQVFTNAEVYNCRGSHVLSCMVKTEQCLVALLHKHLPGHPYVRRKRKKFPDRLAEDEGDSEPEAVGQSRGRRQKK | binds
SAP18 (protein, UniProt O00422 1-153) MAVESRVTQEEIKKEPEKPIDREKTCPLLLRVFTTNNGRHHRMDEFSRGNVPSSELQIYTWMDATLKELTSLVKEVYPEARKKGTHFNFAIVFTDVKRPGYRVKEIGSTMSGRKGTDDSMTLQSQKFQIGDYLDIAITPPNRAPPPSGRMRPY | binds
ILF3 (protein, UniProt Q12906 1-894) MRPMRIFVNDDRHVMAKHSSVYPTQEELEAVQNMVSHTERALKAVSDWIDEQEKGSSEQAESDNMDVPPEDDSKEGAGEQKTEHMTRTLRGVMRVGLVAKGLLLKGDLDLELVLLCKEKPTTALLDKVADNLAIQLAAVTEDKYEILQSVDDAAIVIKNTKEPPLSLTIHLTSPVVREEMEKVLAGETLSVNDPPDVLDRQKCLAALASLRHAKWFQARANGLKSCVIVIRVLRDLCTRVPTWGPLRGWPLELLCEKSIGTANRPMGAGEALRRVLECLASGIVMPDGSGIYDPCEKEATDAIGHLDRQQREDITQSAQHALRLAAFGQLHKVLGMDPLPSKMPKKPKNENPVDYTVQIPPSTTYAITPMKRPMEEDGEEKSPSKKKKKIQKKEEKAEPPQAMNALMRLNQLKPGLQYKLVSQTGPVHAPIFTMSVEVDGNSFEASGPSKKTAKLHVAVKVLQDMGLPTGAEGRDSSKGEDSAEETEAKPAVVAPAPVVEAVSTPSAAFPSDATAEQGPILTKHGKNPVMELNEKRRGLKYELISETGGSHDKRFVMEVEVDGQKFQGAGSNKKVAKAYAALAALEKLFPDTPLALDANKKKRAPVPVRGGPKFAAKPHNPGFGMGGPMHNEVPPPPNLRGRGRGGSIRGRGRGRGFGGANHGGYMNAGAGYGSYGYGGNSATAGYSQFYSNGGHSGNASGGGGGGGGGSSGYGSYYQGDNYNSPVPPKHAGKKQPHGGQQKPSYGSGYQSHQGQQQSYNQSPYSNYGPPQGKQKGYNHGQGSYSYSNSYNSPGGGGGSDYNYESKFNYSGSGGRSGGNSYGSGGASYNPGSHGGYGGGSGGGSSYQGKQGGYSQSNYNSPGSGQNYSGPPSSYQSSQGGYGRNADHSMNYQYR | binds
